The target in the assay is T1, bovine (full-length) IL-2Rα (cattle (Bos taurus)) (UniProt P12342).
T1 sequence: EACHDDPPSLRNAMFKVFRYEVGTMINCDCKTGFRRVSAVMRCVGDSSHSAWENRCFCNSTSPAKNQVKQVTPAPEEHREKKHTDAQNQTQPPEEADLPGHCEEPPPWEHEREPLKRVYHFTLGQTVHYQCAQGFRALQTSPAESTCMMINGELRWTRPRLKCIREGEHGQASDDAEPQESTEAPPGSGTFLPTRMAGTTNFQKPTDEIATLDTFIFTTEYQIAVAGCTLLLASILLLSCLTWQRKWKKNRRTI
Description: flow cytometry on cells; live HEK293T cells co-transfected for a FLAG-tagged cytokine and a full-length (transmembrane) receptor alpha chain; two days after transfection stained with anti-FLAG M2 mAb; cytokine considered bound if the percentage of anti-FLAG-labeled cells was higher than in cells transfected for the cytokine alone. (In general: Flow cytometry measures light scatter and fluorescence of single cells or particles in a stream.)

Results are given in words; binding and its absence hold for the method and conditions named. Some binding calls cover weakened binding; strength is not graded here. Tags and fused reporters may be left off the sequences shown.

B1: bovine IL-15, FLAG-tagged (ligand, UniProt Q28028 49-162)
chain: NWQYVINDLKTIEHLIQSIHMDATLYTESDAHPNCKVTAMQCFLLELRVILHESKNATIYEIIENLTMLANSNLSSIENKTELGCKECEELEEKSIKEFLKSFVHIVQMFINTS
For the molecule B1, the binding entry is reported as “no binding”.

B2: bovine IL-2, FLAG-tagged (ligand, UniProt P05016 21-155)
chain: APTSSSTGNTMKEVKSLLLDLQLLLEKVKNPENLKLSRMHTFDFYVPKVNATELKHLKCLLEELKLLEEVLNLAPSKNLNPREIKDSMDNIKRIVLELQGSETRFTCEYDDATVNAVEFLNKWITFCQSIYSTMT
Consider B2, for which the binding result is recorded as “binds”.
